Assay results as given in US20110045002A1 (BRIGHAM AND WOMEN S HOSPITAL, published 2011).
Results are given in words; binding and its absence hold for the method and conditions named. Some entries that bind do so weakly or less than the wild type. Tags and fused reporters may be left off the sequences shown.

Assays:
[1] = target: T1, Tim-1 on CHO-Tim-1 transfectants (CHO-K1 cells transfected with pEF6 containing murine Tim-1 cDNA) (murine) (UniProt Q5QNS5); assay: flow cytometry on CHO and HEK293 transfectants (legend of FIG. 14)
T1 sequence: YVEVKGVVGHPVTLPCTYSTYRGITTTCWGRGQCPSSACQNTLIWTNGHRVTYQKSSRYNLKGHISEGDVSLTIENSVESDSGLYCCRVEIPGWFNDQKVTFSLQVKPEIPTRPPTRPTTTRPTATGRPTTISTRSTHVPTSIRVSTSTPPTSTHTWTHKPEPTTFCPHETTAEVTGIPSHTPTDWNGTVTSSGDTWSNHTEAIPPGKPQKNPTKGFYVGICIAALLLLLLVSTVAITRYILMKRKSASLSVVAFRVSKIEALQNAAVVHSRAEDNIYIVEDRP

[2] = target: T1, Tim-1 on CHO-Tim-1 transfectants (CHO-K1 cells transfected with pEF6 containing murine Tim-1 cDNA) (murine); assay: summary of the experimental section; flow cytometry with Ig fusion polypeptides
[3] = target: T2, Tim-1 naturally expressed on activated mouse T cells (SJL/J CD3+ T cells; DO11.10 TH1 and TH2 cells) (mouse) (UniProt Q5QNS5); assay: flow cytometry on activated, in vitro-polarized DO11.10 TH1 and TH2 cells (FIG. 15C, 15D)
T2 sequence: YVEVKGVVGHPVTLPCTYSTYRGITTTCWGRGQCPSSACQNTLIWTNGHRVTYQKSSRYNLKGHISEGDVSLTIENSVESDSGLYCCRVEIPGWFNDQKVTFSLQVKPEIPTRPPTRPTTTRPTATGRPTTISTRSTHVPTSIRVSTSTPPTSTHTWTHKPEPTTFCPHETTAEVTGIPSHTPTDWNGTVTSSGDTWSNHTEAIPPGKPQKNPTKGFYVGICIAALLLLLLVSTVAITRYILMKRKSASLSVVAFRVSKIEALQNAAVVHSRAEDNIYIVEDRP

[4] = target: T2, Tim-1 naturally expressed on activated mouse T cells (SJL/J CD3+ T cells; DO11.10 TH1 and TH2 cells) (mouse); assay: flow cytometry on anti-CD3/anti-CD28 activated CD3+ T cells (FIG. 15A)
[5] = target: T1, Tim-1 on CHO-Tim-1 transfectants (CHO-K1 cells transfected with pEF6 containing murine Tim-1 cDNA) (murine); assay: flow cytometry, cell surface staining of CHO transfectants (FIG. 14A)
[6] = target: T2, Tim-1 naturally expressed on activated mouse T cells (SJL/J CD3+ T cells; DO11.10 TH1 and TH2 cells) (mouse); assay: flow cytometry on activated T cells (legend of FIG. 15)
[7] = target: T1, Tim-1 on CHO-Tim-1 transfectants (CHO-K1 cells transfected with pEF6 containing murine Tim-1 cDNA) (murine); assay: flow cytometry on CHO transfectants
[8] = target: T2, Tim-1 naturally expressed on activated mouse T cells (SJL/J CD3+ T cells; DO11.10 TH1 and TH2 cells) (mouse); assay: flow cytometry on activated TH1 and TH2 cells

binding [1]: binds
binding [2]: binds
binding [3]: binds
binding [4]: binds
binding [5]: binds
binding [6]: binds
binding [7]: binds
binding [8]: binds
B1: Tim-4-Ig (soluble Ig fusion polypeptide: extracellular IgV and mucin domains of Tim-4 fused to a human IgG1 Fc tail) (Fc fusion)
chain: FLGQPVTLPCHYLSWSQSRNSMCWGKGSCPNSKCNAELLRTDGTRIISRKSTKYTLLGKVQFGEVSLTISNTNRGDSGVYCCRIEVPGWFNDVKKNVRLELRRATTTKKPTTTTRPTTTPYVTTTTPELLPTTVMTTSVLPTTTPPQTLATTAFSTAVTTCPSTTPGSFSQETTKGSAITTESETLPASNHSQRSMMTISTDIAVLRPTGSNPGILPSTSQLTTQKTTLTTSESLQKTTKSHQINSRQTIL
notes: Made by Chimerigen; also called tim-4:Ig fusion; not shown: human IgG1 Fc tail
